Data on 5 substances can be found in paper PMC6267591.

Protein sequences, listed by entry. Tags and fused reporters are not part of them. Residues count along the entry.
UniProt P15209, residues 32-821: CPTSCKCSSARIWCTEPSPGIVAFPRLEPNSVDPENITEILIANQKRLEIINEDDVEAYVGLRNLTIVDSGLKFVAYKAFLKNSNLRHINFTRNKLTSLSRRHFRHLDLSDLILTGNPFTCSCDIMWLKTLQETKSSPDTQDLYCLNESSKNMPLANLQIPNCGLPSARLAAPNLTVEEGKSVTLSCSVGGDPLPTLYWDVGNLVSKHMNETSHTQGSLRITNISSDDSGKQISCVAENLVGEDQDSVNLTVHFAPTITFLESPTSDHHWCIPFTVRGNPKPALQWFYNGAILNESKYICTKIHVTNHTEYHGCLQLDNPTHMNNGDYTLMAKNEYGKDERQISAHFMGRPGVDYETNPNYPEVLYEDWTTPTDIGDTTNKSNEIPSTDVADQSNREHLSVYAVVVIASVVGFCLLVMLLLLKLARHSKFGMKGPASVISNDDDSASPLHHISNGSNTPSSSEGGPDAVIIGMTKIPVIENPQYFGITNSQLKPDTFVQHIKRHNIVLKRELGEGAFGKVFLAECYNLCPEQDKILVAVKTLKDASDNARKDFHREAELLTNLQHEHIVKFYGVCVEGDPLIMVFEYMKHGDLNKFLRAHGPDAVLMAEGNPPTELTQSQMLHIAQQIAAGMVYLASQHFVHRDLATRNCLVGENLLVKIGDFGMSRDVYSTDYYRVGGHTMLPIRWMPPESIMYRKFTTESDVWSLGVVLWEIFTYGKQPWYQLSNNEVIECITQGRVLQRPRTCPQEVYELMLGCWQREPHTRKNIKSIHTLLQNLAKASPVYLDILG
UniProt Q16288, residues 32-839: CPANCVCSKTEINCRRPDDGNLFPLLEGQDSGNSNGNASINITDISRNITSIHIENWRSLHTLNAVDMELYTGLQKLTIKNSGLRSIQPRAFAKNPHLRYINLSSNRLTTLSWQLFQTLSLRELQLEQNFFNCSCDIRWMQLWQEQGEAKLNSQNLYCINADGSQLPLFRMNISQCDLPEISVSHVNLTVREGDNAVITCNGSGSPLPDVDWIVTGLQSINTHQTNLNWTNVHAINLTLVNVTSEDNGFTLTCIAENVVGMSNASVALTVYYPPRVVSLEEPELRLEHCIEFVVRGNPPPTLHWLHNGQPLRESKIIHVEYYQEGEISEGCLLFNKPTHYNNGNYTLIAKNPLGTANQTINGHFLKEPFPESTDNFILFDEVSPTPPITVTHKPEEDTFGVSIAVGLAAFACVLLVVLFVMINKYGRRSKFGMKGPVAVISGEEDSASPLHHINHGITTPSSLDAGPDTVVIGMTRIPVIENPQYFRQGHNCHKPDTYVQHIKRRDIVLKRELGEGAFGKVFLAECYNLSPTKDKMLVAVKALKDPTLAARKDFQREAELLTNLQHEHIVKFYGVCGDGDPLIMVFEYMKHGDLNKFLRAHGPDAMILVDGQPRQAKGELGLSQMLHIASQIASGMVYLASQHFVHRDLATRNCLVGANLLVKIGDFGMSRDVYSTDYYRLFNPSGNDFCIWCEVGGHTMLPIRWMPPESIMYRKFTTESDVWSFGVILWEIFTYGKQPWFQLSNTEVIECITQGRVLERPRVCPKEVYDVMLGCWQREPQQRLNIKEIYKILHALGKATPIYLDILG
UniProt P04629, residues 33-796: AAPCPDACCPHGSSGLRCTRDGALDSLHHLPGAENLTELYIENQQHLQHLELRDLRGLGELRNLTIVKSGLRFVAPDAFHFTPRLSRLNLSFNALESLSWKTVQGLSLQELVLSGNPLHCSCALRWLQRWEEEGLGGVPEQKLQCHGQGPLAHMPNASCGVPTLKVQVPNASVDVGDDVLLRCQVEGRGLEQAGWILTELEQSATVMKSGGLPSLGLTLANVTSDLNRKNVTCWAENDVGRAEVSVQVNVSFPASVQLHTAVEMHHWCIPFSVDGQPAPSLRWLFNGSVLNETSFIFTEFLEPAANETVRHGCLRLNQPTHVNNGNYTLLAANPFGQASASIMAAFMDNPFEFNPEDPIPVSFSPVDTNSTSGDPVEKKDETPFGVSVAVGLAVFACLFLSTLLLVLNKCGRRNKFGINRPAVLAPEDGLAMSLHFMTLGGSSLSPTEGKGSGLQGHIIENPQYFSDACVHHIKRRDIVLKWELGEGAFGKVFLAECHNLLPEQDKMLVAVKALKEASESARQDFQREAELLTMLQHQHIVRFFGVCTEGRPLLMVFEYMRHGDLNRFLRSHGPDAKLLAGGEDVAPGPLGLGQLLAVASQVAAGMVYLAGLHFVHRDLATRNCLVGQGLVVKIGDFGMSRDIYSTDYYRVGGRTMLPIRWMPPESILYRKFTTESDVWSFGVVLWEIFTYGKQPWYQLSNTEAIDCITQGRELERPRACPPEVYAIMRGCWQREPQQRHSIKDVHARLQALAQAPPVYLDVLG
UniProt Q63604, residues 32-821: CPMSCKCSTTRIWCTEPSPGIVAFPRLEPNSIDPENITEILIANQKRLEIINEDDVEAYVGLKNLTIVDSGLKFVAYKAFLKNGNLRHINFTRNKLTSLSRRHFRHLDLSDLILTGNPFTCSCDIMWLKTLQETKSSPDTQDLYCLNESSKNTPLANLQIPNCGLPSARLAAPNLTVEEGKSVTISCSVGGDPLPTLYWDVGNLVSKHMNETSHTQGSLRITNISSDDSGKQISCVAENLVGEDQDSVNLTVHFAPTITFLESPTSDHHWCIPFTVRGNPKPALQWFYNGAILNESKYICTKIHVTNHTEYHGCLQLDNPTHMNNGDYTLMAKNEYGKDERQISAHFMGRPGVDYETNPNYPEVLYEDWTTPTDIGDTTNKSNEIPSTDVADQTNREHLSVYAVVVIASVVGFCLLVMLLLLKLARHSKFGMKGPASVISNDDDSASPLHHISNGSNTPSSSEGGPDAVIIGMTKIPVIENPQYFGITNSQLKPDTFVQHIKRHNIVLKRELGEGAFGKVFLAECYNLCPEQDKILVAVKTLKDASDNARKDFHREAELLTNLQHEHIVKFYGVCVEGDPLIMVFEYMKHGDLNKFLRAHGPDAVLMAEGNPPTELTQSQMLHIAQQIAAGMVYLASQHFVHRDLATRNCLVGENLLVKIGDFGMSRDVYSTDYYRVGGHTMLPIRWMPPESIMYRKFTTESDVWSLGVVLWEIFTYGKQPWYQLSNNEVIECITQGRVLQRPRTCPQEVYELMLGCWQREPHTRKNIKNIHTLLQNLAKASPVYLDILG
UniProt P60879: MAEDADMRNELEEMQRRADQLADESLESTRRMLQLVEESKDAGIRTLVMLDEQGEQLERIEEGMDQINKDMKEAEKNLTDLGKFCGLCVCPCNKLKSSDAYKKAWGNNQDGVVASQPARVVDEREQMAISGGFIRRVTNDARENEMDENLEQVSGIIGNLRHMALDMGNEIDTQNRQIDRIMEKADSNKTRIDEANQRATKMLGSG
UniProt P63044: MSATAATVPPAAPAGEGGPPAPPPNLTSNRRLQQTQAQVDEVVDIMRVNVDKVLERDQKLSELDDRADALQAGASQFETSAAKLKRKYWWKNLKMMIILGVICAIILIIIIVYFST

These are yes or no findings as the source states them, for the method shown. In cells and extracts the contact can be indirect.

Assay [1] has as its target TrkB receptor (endogenous, mouse brain) (mouse (endogenous in E15 and adult brain)) (UniProt P15209). The assay can be described thus: co-IP; endogenous proteins in E15 and adult mouse brain lysates (1% Triton X-100 lysis buffer); antibody overnight at 4°C in IP buffer (10 mM Tris pH 7, 140 mM NaCl, 1.5 mM EDTA), Protein G-sepharose 2 h at 4°C, Western blot.
The target of assay [2] is TrkC-myc (UniProt Q16288). The assay can be described thus: co-IP; lysates of transiently co-transfected HEK293 cells; anti-FLAG, anti-myc, anti-HA, anti-GFP, anti-TI-VAMP or HPC-1 antibodies, Protein G-sepharose 2 h at 4°C, Western blot. On the technique in general: In western blotting, separated proteins are transferred to a membrane and probed.
Assay [3] has as its target TrkA-HA (UniProt P04629). The assay is described as above.
Assay [4] addresses TrkB-GFP (UniProt Q63604). The assay is described as above.
The target of assay [5] is SNAP25 (endogenous, mouse brain) (mouse (endogenous in E15 and adult brain)) (UniProt P60879). The assay can be described thus: co-IP; endogenous proteins in E15 and adult mouse brain lysates (1% Triton X-100 lysis buffer); antibody overnight at 4°C in IP buffer (10 mM Tris pH 7, 140 mM NaCl, 1.5 mM EDTA), Protein G-sepharose 2 h at 4°C, Western blot.
Assay [6] addresses VAMP2 (endogenous, mouse brain) (mouse (endogenous in E15 and adult brain)) (UniProt P63044). The description is as above.

“SNAP25 (endogenous, mouse brain) (from UniProt P60879 1-206)”: the binding entry in assay [1] is recorded as “no binding”.

For SNAP25-FLAG (from UniProt P60879 1-206), the binding result in assay [2], in assay [3] and in assay [4] was “no binding” in each case.

On to “TrkB receptor (endogenous, mouse brain) (from UniProt P15209 32-821)”, for which the binding entry in assay [5] and in assay [6] was “no binding” throughout.

As for “VAMP2 (endogenous, mouse brain) (from UniProt P63044 1-116)”, the binding result in assay [1] is given as “no binding”.

As to VAMP2-FLAG (from UniProt P63044 1-116), the binding entry in assay [2], in assay [3] and in assay [4] was “no binding” each time.
